# Test results: the supplement of paper PMC12067093, “Discovery and optimisation of a covalent ligand for TRIM25 and its application to targeted protein ubiquitination” (Chemical Science, 2025)
# Chains of the proteins cited; added tags and fusions are not shown. Lines headed by an entry give the natural chain unless they say otherwise; changes in a name come on top.
# UniProt P50990: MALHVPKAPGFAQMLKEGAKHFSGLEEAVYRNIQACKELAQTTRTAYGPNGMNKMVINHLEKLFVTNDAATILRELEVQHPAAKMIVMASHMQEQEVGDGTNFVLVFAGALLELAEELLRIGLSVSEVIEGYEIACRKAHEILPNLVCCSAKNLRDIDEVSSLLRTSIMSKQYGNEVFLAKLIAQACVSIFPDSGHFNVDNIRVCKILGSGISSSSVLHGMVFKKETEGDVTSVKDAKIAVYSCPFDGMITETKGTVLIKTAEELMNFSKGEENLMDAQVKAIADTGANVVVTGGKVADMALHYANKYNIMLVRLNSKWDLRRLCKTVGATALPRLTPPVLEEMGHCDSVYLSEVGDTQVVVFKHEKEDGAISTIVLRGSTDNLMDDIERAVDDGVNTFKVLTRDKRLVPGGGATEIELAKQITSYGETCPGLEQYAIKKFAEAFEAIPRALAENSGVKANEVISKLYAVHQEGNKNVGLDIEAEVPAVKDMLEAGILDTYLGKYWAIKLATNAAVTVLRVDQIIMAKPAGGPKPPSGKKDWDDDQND
# UniProt Q9BYV8: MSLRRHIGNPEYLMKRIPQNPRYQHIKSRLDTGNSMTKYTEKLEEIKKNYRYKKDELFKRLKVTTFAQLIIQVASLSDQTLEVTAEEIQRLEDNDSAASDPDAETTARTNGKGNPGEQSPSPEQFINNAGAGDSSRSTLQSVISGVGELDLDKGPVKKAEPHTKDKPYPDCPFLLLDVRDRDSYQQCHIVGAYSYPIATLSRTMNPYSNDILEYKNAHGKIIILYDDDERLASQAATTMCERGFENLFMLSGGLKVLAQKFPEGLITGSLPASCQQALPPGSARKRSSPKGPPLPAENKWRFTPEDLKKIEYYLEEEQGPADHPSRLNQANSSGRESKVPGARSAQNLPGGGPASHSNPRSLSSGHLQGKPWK
# UniProt Q8TEP8: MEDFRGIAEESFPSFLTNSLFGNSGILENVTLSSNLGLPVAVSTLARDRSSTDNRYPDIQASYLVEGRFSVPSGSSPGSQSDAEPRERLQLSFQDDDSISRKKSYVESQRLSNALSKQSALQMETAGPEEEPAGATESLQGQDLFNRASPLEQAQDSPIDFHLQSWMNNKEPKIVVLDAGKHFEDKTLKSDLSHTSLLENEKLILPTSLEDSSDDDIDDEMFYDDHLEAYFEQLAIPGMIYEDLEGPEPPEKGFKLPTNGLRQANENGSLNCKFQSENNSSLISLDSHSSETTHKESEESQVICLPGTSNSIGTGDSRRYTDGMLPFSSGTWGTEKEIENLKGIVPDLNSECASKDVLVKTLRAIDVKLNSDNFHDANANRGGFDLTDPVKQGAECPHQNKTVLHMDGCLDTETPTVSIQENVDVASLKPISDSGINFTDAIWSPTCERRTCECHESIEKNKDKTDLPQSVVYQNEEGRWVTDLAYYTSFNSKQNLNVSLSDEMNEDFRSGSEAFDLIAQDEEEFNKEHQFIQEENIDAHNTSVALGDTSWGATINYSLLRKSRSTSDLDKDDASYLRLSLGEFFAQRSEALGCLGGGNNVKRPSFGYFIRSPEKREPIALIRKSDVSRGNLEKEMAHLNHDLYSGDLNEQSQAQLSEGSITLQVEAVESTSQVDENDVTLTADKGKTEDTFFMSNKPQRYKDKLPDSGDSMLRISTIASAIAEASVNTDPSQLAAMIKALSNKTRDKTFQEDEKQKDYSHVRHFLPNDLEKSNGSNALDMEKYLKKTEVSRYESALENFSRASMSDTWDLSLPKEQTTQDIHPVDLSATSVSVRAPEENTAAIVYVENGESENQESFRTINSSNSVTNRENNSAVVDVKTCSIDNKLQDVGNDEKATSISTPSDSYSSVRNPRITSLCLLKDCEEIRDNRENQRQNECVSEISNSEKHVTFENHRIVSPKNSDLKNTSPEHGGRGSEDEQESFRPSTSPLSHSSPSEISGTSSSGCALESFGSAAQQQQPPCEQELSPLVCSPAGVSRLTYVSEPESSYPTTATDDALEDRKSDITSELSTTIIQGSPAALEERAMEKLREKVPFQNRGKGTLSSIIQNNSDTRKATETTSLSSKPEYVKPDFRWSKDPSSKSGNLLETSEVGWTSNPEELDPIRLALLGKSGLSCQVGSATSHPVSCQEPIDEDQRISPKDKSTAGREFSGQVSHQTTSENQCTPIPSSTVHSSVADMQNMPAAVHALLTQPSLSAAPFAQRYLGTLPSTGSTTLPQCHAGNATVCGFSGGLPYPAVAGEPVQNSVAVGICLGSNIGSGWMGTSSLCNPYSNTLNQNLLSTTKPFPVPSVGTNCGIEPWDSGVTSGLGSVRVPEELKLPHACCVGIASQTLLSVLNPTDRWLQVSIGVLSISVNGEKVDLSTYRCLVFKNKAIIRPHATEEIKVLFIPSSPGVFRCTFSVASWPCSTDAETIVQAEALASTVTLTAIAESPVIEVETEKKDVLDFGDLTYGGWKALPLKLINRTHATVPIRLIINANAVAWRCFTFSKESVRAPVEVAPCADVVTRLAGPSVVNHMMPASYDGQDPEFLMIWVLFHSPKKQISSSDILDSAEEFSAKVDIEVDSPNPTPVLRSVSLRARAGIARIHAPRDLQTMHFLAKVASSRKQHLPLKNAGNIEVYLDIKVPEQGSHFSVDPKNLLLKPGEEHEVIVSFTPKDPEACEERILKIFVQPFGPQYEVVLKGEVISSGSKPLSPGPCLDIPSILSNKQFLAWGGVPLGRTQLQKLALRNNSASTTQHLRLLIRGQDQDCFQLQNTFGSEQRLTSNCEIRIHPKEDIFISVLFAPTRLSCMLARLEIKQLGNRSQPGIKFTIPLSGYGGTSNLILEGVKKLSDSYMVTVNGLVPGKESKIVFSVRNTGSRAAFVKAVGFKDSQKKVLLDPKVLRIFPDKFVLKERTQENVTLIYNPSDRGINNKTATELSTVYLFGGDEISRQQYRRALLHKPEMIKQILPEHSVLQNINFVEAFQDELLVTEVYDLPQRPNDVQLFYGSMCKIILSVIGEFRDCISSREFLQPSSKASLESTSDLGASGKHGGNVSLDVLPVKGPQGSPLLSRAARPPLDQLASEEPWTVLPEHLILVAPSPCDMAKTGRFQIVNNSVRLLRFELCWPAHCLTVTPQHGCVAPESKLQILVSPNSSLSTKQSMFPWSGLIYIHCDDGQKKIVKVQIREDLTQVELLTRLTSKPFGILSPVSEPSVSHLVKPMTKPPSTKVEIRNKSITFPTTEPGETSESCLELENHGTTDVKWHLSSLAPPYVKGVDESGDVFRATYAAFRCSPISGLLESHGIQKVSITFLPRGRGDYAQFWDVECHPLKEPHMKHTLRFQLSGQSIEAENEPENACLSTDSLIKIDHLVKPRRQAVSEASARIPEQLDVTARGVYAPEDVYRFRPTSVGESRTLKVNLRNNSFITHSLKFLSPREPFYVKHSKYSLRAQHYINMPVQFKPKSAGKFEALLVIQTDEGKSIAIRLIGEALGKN
# UniProt Q9H211: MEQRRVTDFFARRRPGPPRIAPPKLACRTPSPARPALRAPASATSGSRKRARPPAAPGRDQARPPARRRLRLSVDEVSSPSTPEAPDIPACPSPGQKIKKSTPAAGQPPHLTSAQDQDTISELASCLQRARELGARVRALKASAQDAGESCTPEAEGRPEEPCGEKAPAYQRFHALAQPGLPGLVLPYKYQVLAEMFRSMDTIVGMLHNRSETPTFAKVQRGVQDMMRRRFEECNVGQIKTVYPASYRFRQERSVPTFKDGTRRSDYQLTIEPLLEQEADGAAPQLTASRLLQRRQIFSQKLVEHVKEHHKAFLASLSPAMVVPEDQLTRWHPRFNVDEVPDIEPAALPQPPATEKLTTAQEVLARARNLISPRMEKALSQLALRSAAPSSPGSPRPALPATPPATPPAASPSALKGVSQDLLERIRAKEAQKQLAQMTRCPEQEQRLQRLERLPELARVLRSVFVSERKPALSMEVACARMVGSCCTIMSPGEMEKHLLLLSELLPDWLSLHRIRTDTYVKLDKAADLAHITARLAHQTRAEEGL
# UniProt P23141: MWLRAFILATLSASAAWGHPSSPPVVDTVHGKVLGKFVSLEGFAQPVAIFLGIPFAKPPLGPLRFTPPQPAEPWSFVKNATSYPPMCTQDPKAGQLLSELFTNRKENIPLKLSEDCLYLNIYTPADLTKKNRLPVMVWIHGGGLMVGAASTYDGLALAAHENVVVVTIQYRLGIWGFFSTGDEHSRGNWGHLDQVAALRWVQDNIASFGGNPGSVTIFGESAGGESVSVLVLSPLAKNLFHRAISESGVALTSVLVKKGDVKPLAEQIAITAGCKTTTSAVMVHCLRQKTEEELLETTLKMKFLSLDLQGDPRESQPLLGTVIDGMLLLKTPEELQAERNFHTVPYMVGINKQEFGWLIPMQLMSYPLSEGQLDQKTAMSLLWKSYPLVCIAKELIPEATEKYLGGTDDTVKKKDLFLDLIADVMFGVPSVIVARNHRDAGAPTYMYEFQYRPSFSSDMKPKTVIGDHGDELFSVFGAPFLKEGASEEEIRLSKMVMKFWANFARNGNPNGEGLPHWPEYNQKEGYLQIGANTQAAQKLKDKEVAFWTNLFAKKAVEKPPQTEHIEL
# UniProt O95319: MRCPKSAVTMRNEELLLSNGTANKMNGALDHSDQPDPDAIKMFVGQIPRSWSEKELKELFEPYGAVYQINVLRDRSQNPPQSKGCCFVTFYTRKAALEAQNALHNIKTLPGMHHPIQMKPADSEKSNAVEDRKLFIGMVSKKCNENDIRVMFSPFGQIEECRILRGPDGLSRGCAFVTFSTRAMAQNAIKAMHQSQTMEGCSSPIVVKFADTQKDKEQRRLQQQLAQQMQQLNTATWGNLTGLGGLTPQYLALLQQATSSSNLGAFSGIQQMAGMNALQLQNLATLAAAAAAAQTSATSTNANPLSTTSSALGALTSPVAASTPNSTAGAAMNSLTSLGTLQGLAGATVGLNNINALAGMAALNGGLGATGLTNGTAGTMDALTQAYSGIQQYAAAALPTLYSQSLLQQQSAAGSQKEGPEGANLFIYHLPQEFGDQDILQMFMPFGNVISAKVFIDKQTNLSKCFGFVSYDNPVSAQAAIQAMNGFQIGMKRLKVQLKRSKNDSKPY
# UniProt Q9Y6K0: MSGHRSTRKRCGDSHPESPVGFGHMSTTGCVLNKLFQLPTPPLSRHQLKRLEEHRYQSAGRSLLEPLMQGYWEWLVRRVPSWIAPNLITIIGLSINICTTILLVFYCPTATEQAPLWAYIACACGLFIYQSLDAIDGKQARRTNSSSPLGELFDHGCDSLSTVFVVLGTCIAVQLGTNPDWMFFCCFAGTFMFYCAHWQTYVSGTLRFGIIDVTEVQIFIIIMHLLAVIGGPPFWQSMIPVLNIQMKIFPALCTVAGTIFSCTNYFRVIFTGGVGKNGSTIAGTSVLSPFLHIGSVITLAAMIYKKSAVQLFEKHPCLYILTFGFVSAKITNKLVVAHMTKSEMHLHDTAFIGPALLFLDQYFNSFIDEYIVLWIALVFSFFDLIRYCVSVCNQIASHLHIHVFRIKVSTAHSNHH
# UniProt Q13042, whole entry, looked up: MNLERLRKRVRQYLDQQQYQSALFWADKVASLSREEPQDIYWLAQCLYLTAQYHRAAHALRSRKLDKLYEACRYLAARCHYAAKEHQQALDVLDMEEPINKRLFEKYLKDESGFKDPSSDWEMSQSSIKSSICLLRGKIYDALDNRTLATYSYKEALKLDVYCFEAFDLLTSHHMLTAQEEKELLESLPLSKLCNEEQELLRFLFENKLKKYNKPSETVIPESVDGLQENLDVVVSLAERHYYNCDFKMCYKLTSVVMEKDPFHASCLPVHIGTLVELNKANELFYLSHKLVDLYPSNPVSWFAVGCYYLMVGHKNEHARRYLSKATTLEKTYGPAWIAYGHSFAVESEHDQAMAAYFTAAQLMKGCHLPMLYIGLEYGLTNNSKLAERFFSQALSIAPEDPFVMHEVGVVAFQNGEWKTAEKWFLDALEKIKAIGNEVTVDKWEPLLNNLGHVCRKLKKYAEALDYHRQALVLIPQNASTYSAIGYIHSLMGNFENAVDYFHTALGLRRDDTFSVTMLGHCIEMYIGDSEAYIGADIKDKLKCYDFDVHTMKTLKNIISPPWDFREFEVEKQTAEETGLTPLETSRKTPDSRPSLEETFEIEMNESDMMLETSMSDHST
# UniProt Q01850: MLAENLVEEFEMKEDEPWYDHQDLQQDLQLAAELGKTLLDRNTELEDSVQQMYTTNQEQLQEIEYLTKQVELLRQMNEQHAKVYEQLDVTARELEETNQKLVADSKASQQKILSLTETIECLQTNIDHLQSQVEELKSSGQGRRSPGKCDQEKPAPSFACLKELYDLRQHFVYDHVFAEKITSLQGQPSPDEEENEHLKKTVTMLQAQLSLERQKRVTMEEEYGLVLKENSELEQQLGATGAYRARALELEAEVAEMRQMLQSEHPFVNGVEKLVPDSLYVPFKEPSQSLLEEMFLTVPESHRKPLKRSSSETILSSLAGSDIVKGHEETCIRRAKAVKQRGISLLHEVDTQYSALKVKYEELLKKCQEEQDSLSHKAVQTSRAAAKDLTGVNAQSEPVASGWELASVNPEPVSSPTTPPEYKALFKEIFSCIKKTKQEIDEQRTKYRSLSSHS
# Some of the results follow.
# Compound: Cc1cc(ccc1-c1ccccc1)C(=O)N1CCCN(CC1)C(=O)CCl [compound 10]
# Assay: probe-labelled cysteine peptide fold change vs DMSO (competition) (log2 fold change); higher = less target engagement (more negative = stronger competition)
# Details: THP-1, incubation time: 4 h
# 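Further: competitive profiling in live THP-1 cells: cysteine peptides tagged with an iodoacetamide desthiobiotin (IA-DTB) probe, intensity after compound treatment relative to DMSO-treated cells.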
Target,probe-labelled cysteine peptide fold change (10 µM),probe-labelled cysteine peptide fold change (50 µM)
CD82_P27701_216_TQSGNHPEDWPVYQEGCMEK (UniProt P27701),-0.269,-0.033
CCT8_P50990_149_KAHEILPNLVCCSAK (UniProt P50990),0.0395,-0.739
CEP41_Q9BYV8_171_DKPYPDCPFLLLDVR (UniProt Q9BYV8),0.208,-0.125
CDK4_P11802_135_GLDFLHANCIVHR (UniProt P11802),-0.0105,-0.265
CD37_P11049_217_HSADICAVPAESHIYR (UniProt P11049),-0.396,-0.279
CEP350_Q5VT06_3083_DRVDHILVQELHEEEAQWVNYDEDELCVK (UniProt Q5VT06),-0.0902,-0.164
CENPL_Q8N0S6_286_TPGEVTQEEVDLFMDCLYSHFHR (UniProt Q8N0S6),-0.289,-0.126
CEP192_Q8TEP8_272_QANENGSLNCK (UniProt Q8TEP8),-0.432,-0.576
CCT6A_P40227_508_QLLHSCTVIATNILLVDEIMR (UniProt P40227),0.147,0.462
CFL1_P23528_139_HELQANCYEEVKDR (UniProt P23528),-0.0334,-0.132
CDC123_O75794_170_WCELIPGAEFR (UniProt O75794),-0.0582,0.106
CEP192_Q8TEP8_396_QGAECPHQNK (UniProt Q8TEP8),-0.122,-0.369
CDC45_O75419_267_NEDEENTLSVDCTR (UniProt O75419),-0.0624,-0.273
CDC42BPB_Q9Y5S2_1328_GCQLMATATLKR (UniProt Q9Y5S2),0.1,-0.265
CEP55_Q53EZ4_359_VALLEQQMQACTLDFENEK (UniProt Q53EZ4),0.0177,-0.118
CDC42BPA_Q5VT25_121_AETACFR (UniProt Q5VT25),0.111,0.448
CDC23_Q9UJX2_324_SELSYLAHNLCEIDK (UniProt Q9UJX2),0.135,0.0685
CDT1_Q9H211_163_ASAQDAGESCTPEAEGRPEEPCGEK (UniProt Q9H211),-0.292,-0.434
CEP350_Q5VT06_1432_EVTEVLQEATCK (UniProt Q5VT06),-0.411,-0.297
CES1_P23141_274_PLAEQIAITAGCK (UniProt P23141),-0.275,0.523

# Record cards, as listed above. Order of values: probe-labelled cysteine peptide fold change (10 µM)	probe-labelled cysteine peptide fold change (50 µM)
# CDT1_Q9H211_163_ASAQDAGESCTPEAEGRPEEPCGEK (UniProt Q9H211) in the list: -0.292	-0.434
# CES1_P23141_274_PLAEQIAITAGCK (UniProt P23141) in the list: -0.275	0.523

# Additional results follow.

Target,probe-labelled cysteine peptide fold change (10 µM),probe-labelled cysteine peptide fold change (50 µM)
CELF2_O95319_201_AMHQSQTMEGCSSPIVVK (UniProt O95319),0.00477,-0.115
CDK14_O94921_402_LLQCSPK (UniProt O94921),-0.0479,-0.0855
CCT8_P50990_148_AHEILPNLVCCSAK (UniProt P50990),0.0236,0.162
CEP97_Q8IW35_34_LGPNLPCEADIHTLILDK (UniProt Q8IW35),-0.0455,-0.0325
CEPT1_Q9Y6K0_30_CGDSHPESPVGFGHMSTTGCVLNK (UniProt Q9Y6K0),-2.38,-2.51
CENPV_Q7Z7K6_216_AQHTFCK (UniProt Q7Z7K6),0.0919,0.0649
CCT5_P48643_440_CPTLEQYAMR (UniProt P48643),-0.19,0.0642
CDC27_P30260_137_GSECYQK (UniProt P30260),-0.0928,-0.0624
CDC16_Q13042_163_LDVYCFEAFDLLTSHHMLTAQEEK (UniProt Q13042),0.345,0.144
CES1_P23141_285_TTTSAVMVHCLR (UniProt P23141),0.0256,0.129
CEP63_Q96MT8_108_LHEELCILK (UniProt Q96MT8),-0.278,-0.235
CENPF_P49454_752_CYQDLHAEYESLR (UniProt P49454),0.259,0.41
CEBPZ_Q03701_374_ALTVAHELLCNKPEEEK (UniProt Q03701),0.0237,-0.0494
CCT8_P50990_149_AHEILPNLVCCSAK (UniProt P50990),0.0904,-0.18
CDR2_Q01850_432_EIFSCIK (UniProt Q01850),0.0698,0.087
CEP131_Q9UPN4_218_AATCEGSESSGFGK (UniProt Q9UPN4),-0.22,-0.187
CCT8_P50990_347_LTPPVLEEMGHCDSVYLSEVGDTQVVVFK (UniProt P50990),0.0548,-0.00743
CDKAL1_Q5VV42_109_ITENASDADLWLLNSCTVK (UniProt Q5VV42),0.15,0.198
CD93_Q9NPY3_53_LSAAEAQNHCNQNGGNLATVK (UniProt Q9NPY3),-0.241,-0.213
